# Assay results reported in the supplement of paper PMC8728848.
# Some of the results follow.
# What was measured:
# Experiment in all cases: glycan array binding signal (z-score within array); higher = stronger binding
# Settings in all cases: glycan notation: IUPAC condensed, linker removed
# [1] = molecular target: Neu5Ac(a2-6)GlcNAc(b1-4)GlcNAc(b1-4)GlcNAc
# In short: (§1)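 Glycan array data were curated from 3228 arrays in the Consortium for Functional Glycomics database and kept only where the protein sequence was available. Glycan names were converted to IUPAC-condensed notation, and columns mapping to the same glycan were averaged. The binding signal is a within-array Z-score, averaged across arrays of the same protein sequence at different concentrations or buffers and across linkers. Negative Z-scores can be read as non-binding.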
# Neu5Ac(a2-8)Neu5Ac = molecular target: Neu5Ac(a2-8)Neu5Ac
# In short: as §1
# [2] = molecular target: Neu5Ac(a2-8)Neu5Ac(a2-3)Gal(b1-3)GalNAc(b1-4)[Neu5Ac(a2-3)]Gal(b1-4)Glc
# In short: as §1
# [3] = molecular target: Neu5Ac(a2-8)Neu5Ac(a2-3)Gal(b1-3)GalNAc(b1-4)[Neu5Ac(a2-8)Neu5Ac(a2-3)]Gal(b1-4)Glc
# In short: as §1
# [4] = molecular target: Neu5Ac(a2-8)Neu5Ac(a2-3)Gal(b1-4)Glc
# In short: as §1
# [5] = molecular target: Neu5Ac(a2-8)Neu5Ac(a2-3)Gal(b1-4)GlcNAc
# In short: as §1
# [6] = molecular target: Neu5Ac(a2-8)Neu5Ac(a2-3)[Gal(b1-3)GalNAc(b1-4)]Gal(b1-4)Glc
# In short: as §1
# [7] = molecular target: Neu5Ac(a2-8)Neu5Ac(a2-3)[GalNAc(b1-4)]Gal(b1-4)Glc
# In short: as §1
# [8] = molecular target: Neu5Ac(a2-8)Neu5Ac(a2-8)Neu5Ac
# In short: as §1
# [9] = molecular target: Neu5Ac(a2-8)Neu5Ac(a2-8)Neu5Ac(a2-3)Gal(b1-4)Glc
# In short: as §1
# [10] = molecular target: Neu5Ac(a2-8)Neu5Ac(a2-8)Neu5Ac(a2-3)[Gal(b1-3)GalNAc(b1-4)]Gal(b1-4)Glc
# In short: as §1
# [11] = molecular target: Neu5Ac(a2-8)Neu5Ac(a2-8)Neu5Ac(a2-3)[GalNAc(b1-4)]Gal(b1-4)Glc
# In short: as §1
# [12] = molecular target: Neu5Ac(a2-8)Neu5Ac(a2-8)Neu5Ac(a2-8)Neu5Ac(a2-3)[GalNAc(b1-4)]Gal(b1-4)Glc
# In short: as §1
# [13] = molecular target: Neu5Ac(a2-8)Neu5Gc(a2-3)Gal(b1-4)GlcNAc
# In short: as §1
# [14] = molecular target: Neu5Ac(b2-6)Gal(b1-4)GlcNAc
# In short: as §1
# Neu5Ac(b2-6)GalNAc = molecular target: Neu5Ac(b2-6)GalNAc
# In short: as §1
# [15] = molecular target: Neu5Ac9Ac(a2-3)Gal(b1-3)GlcNAc
# In short: as §1
# [16] = molecular target: Neu5Ac9Ac(a2-3)Gal(b1-4)GlcNAc
# In short: as §1
# [17] = molecular target: Neu5Ac9Ac(a2-6)Gal(b1-4)GlcNAc
# In short: as §1
# [18] = molecular target: Neu5Gc(a2-3)Gal(b1-3)GlcNAc
# In short: as §1
# [19] = molecular target: Neu5Gc(a2-3)Gal(b1-3)[Fuc(a1-4)]GlcNAc
# In short: as §1
# Neu5Gc(a2-3)Gal(b1-4)Glc = molecular target: Neu5Gc(a2-3)Gal(b1-4)Glc
# In short: as §1
# [20] = molecular target: Neu5Gc(a2-3)Gal(b1-4)GlcNAc
# In short: as §1
# [21] = molecular target: Neu5Gc(a2-3)Gal(b1-4)GlcNAc(b1-3)Gal(b1-4)GlcNAc(b1-2)Man(a1-3)[Neu5Gc(a2-3)Gal(b1-4)GlcNAc(b1-3)Gal(b1-4)GlcNAc(b1-2)Man(a1-6)]Man(b1-4)GlcNAc(b1-4)GlcNAc
# In short: as §1
# [22] = molecular target: Neu5Gc(a2-3)Gal(b1-4)[Fuc(a1-3)]GlcNAc
# In short: as §1
# [23] = molecular target: Neu5Gc(a2-6)Gal(b1-4)GlcNAc
# In short: as §1
# Neu5Gc(a2-6)GalNAc = molecular target: Neu5Gc(a2-6)GalNAc
# In short: as §1
# [24] = molecular target: Neu5Gc(a2-8)Neu5Ac(a2-3)Gal(b1-4)GlcNAc
# In short: as §1
# [25] = molecular target: Neu5Gc(a2-8)Neu5Gc(a2-3)Gal(b1-4)GlcNAc
# In short: as §1
# [26] = molecular target: Neu5Gc(a2-8)Neu5Gc(a2-3)Gal(b1-4)GlcNAc(b1-3)Gal(b1-4)GlcNAc
# In short: as §1
# [27] = molecular target: Neu5Gc(a2-8)Neu5Gc(a2-6)Gal(b1-4)GlcNAc
# In short: as §1
# [28] = molecular target: Neu5Gc(b2-6)Gal(b1-4)GlcNAc
# In short: as §1
binder,measurement,setting,value
GS7807F-bth-514-18-514 (Bacteroides thetaiotaomicron) (protein) AGSCTGNFEEYNTNQFQIHEADPSTLMKSMIETIVNIQQNDSQMMDQMVGQLGGYLTCANVWSGTNFGTFNQSDAWNAGPWNTNFEKIYGNFFQIQEATNESGHYYAFARMIRAITMLRVADCYGPMPYSQVKKGNFYVAYDTEEQVYKNIMEDFASAANVLYNYYKDTNGNAPLASNDPVFSGNYANWARLANSMRLRVAIRISTAYPEMAKENAEAAASHEAGLIEANNDNAMMDCGSQTNPYQLAAVSWGDLRVNANIVDYMNGYGDPRMSKYFNHSTFTGHTQEYVGMRSGEDGFAKSDVAGYSIPAITGTSKLLVFCAAETAFLRAEGKLKNWSVGNKSAKEYYEEGIKLSMEQYGTTMPDNYLTNTEKPTVSHNNDPRGHAYTISNTVAVAWNDNNEEENLQRIITQKWIANYPLGLEAWAEYRRTGYPELYPCIDNLSPSGVDSKRGMRRLRFPYTEVQNNHSNYQQGVSYLKNGGPDNEATDLSWGKTN,glycan array binding signal (z-score),[1],-0.801
same,glycan array binding signal (z-score),Neu5Ac(a2-8)Neu5Ac,-0.857
same,glycan array binding signal (z-score),[2],-0.844
same,glycan array binding signal (z-score),[3],0.524
same,glycan array binding signal (z-score),[4],-0.877
same,glycan array binding signal (z-score),[5],-0.901
same,glycan array binding signal (z-score),[6],0.122
same,glycan array binding signal (z-score),[7],3.32
same,glycan array binding signal (z-score),[8],-0.655
same,glycan array binding signal (z-score),[9],-0.82
same,glycan array binding signal (z-score),[10],-0.798
same,glycan array binding signal (z-score),[11],1.19
same,glycan array binding signal (z-score),[12],2.31
same,glycan array binding signal (z-score),[13],-0.888
same,glycan array binding signal (z-score),[14],-0.329
same,glycan array binding signal (z-score),Neu5Ac(b2-6)GalNAc,-0.845
same,glycan array binding signal (z-score),[15],-0.605
same,glycan array binding signal (z-score),[16],-0.825
same,glycan array binding signal (z-score),[17],0.148
same,glycan array binding signal (z-score),[18],-0.886
same,glycan array binding signal (z-score),[19],-0.819
same,glycan array binding signal (z-score),Neu5Gc(a2-3)Gal(b1-4)Glc,-0.586
same,glycan array binding signal (z-score),[20],-0.886
same,glycan array binding signal (z-score),[21],-0.775
same,glycan array binding signal (z-score),[22],2.31
same,glycan array binding signal (z-score),[23],-0.33
same,glycan array binding signal (z-score),Neu5Gc(a2-6)GalNAc,-0.758
same,glycan array binding signal (z-score),[24],-0.565
same,glycan array binding signal (z-score),[25],-0.884
same,glycan array binding signal (z-score),[26],-0.908
same,glycan array binding signal (z-score),[27],-0.26
same,glycan array binding signal (z-score),[28],0.477

# Part of the list above, bar-delimited:
binder | measurement | setting | value
GS7807F-bth-514-18-514 (Bacteroides thetaiotaomicron) (protein) AGSCTGNFEEYNTNQFQIHEADPSTLMKSMIETIVNIQQNDSQMMDQMVGQLGGYLTCANVWSGTNFGTFNQSDAWNAGPWNTNFEKIYGNFFQIQEATNESGHYYAFARMIRAITMLRVADCYGPMPYSQVKKGNFYVAYDTEEQVYKNIMEDFASAANVLYNYYKDTNGNAPLASNDPVFSGNYANWARLANSMRLRVAIRISTAYPEMAKENAEAAASHEAGLIEANNDNAMMDCGSQTNPYQLAAVSWGDLRVNANIVDYMNGYGDPRMSKYFNHSTFTGHTQEYVGMRSGEDGFAKSDVAGYSIPAITGTSKLLVFCAAETAFLRAEGKLKNWSVGNKSAKEYYEEGIKLSMEQYGTTMPDNYLTNTEKPTVSHNNDPRGHAYTISNTVAVAWNDNNEEENLQRIITQKWIANYPLGLEAWAEYRRTGYPELYPCIDNLSPSGVDSKRGMRRLRFPYTEVQNNHSNYQQGVSYLKNGGPDNEATDLSWGKTN | glycan array binding signal (z-score) | [16] | -0.825
same | glycan array binding signal (z-score) | [17] | 0.148
